These are yes or no findings as the source states them, for the method shown. Some binding calls cover weakened binding; strength is not graded here.

Amino acid sequences for entries named in this document (tags omitted).
UniProt P36405: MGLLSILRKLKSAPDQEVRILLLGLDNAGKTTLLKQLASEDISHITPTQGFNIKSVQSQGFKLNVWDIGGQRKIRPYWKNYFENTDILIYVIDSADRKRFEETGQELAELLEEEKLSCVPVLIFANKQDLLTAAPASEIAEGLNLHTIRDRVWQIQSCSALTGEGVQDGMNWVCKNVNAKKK

These results are taken from paper PMC7817177 (eLife, 2021).

The experiment addresses ADP-ribosylation factor-like 3 (ARL3), full length (human) (UniProt P36405). The experiment is described as follows: SPR; Biacore 8K, CM5 chip with GST capture kit; GST-BART immobilised (about 100 units); 640 nM ARL3GppNHp injected for 120 s, then nine injections of buffer or 2 µM PDEδ; 25°C, 30 µL/min; 20 mM Tris pH 7.5, 150 mM NaCl, 5 mM MgCl2, 0.02% triton X-100, 2 mM DTT; both purified. For orientation: In SPR one partner is held on a chip, and binding of the other changes the refractive index at the surface.

Take “phosphodiesterase six subunit δ (PDEδ), full length (from UniProt O43924 1-150)”: the binding result is “binds”.
